{
  "sequences": {"note": "Sequences of proteins named here, by UniProt entry; tags and fusion partners are left off. A change or cut given only in a name is not applied to a line headed by its entry.", "UniProt P81947": "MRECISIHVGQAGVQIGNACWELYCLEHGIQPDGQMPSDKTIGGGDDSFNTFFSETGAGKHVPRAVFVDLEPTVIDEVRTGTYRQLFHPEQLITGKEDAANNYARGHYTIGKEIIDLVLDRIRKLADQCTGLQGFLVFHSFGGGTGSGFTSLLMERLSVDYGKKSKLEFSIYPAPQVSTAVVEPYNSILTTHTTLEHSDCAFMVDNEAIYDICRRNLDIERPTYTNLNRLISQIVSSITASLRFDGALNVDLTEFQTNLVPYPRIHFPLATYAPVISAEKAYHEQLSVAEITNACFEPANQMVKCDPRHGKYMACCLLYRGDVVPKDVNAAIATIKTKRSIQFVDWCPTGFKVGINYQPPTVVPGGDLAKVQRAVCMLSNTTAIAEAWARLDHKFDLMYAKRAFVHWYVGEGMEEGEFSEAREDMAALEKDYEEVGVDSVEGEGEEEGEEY", "UniProt Q6B856": "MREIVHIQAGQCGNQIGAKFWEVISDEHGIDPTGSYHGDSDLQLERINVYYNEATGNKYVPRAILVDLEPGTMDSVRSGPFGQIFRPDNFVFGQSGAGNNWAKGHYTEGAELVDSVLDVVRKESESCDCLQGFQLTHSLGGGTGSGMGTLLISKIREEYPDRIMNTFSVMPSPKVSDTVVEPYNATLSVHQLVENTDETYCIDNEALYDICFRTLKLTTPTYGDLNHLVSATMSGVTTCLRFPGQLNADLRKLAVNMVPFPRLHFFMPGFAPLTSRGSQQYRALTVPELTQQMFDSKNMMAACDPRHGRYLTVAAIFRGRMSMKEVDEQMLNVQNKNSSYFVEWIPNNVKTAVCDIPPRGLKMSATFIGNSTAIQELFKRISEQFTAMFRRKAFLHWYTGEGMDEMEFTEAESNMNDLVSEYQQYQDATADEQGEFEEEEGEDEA"},
  "source": "patent US20080280824A1",
  "about": "“COMPOSITIONS AND METHODS FOR TREATMENT OF CANCER OR NEURODEGENERATIVE DISEASE WITH PEPTIDE BASED MICROTUBULE STABILIZERS OR INHIBITORS” (University of Washington, priority 2007, published 2008)",
  "binders": {"B1": {"name": "wt human αB crystallin (protein, UniProt P02511 1-175, looked up)", "chain": "MDIAIHHPWIRRPFFPFHSPSRLFDQFFGEHLLESDLFPTSTSLSPFYLRPPSFLRAPSWFDTGLSEMRLEKDRFSVNLDVKHFSPEELKVKVLGDVIEVHGKHEERQDEHGFISREFHRKYRIPADVDPLTITSSLSSDGVLTVNGPRKQVSGPERTIPITREEKPAVTAAPKK"}},
  "target": "Bovine brain tubulin (bovine) (UniProt P81947+Q6B856)",
  "assay": "inferred from the dependence of microtubule assembly on the αB crystallin concentration; no direct binding assay",
  "note": "No constants are given. Whether binding was seen depends on the method and setting. Some entries that bind do so weakly or less than the wild type.",
  "data": [
    {"binder": "B1", "values": [
      {"measurement": "binding", "result": "binds"}
    ]}
  ]
}
